Consider two substances from paper PMC5656757.

The chains behind the UniProt entries cited, without tags or fusion partners. Residues count along the entry.
UniProt P08013: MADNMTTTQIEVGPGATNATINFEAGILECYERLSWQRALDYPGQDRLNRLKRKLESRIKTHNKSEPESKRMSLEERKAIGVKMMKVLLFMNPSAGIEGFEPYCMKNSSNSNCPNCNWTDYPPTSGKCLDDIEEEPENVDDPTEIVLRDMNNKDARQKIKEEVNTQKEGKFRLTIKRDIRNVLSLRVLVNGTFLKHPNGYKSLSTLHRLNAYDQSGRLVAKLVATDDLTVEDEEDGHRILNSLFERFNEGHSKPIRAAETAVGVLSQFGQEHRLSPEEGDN
UniProt P05161, residues 1-157: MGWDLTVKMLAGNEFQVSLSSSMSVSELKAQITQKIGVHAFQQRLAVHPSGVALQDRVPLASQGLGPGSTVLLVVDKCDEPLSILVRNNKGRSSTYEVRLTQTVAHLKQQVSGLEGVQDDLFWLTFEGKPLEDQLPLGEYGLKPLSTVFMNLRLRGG
UniProt P19525: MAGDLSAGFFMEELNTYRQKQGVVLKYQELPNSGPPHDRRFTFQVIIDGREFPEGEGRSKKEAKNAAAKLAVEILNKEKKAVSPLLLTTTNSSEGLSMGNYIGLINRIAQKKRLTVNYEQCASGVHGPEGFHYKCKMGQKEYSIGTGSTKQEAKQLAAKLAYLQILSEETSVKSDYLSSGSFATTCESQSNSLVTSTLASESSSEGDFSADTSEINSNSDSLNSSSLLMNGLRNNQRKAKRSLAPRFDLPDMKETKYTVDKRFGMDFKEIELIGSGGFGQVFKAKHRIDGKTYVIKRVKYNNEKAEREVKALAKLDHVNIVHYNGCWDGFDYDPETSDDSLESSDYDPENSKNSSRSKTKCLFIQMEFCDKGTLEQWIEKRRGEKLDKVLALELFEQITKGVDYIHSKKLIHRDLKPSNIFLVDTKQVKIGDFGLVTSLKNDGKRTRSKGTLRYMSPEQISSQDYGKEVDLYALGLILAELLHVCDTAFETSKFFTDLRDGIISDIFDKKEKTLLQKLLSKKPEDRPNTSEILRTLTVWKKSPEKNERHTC

The target of this test is N-terminal V5-tagged FLUBV NS1 protein (strain B/Yamagata/1/73) (influenza B virus (strain B/Yamagata/1/73)) (UniProt P08013). The test can be described thus: co-IP.

No constants are given. Whether binding was seen depends on the method and setting. Binding seen in cells or lysates may run through a third protein. Some binding calls cover weakened binding; strength is not graded here.

For ISG15 (from UniProt P05161 1-157), the binding result is reported as “binds”.
As for “dsRNA-activated protein kinase, PKR (from UniProt P19525 1-551)”, the binding entry was “binds”.
